The results in this text go back to US5874086A (Syntex (U.S.A,), Inc., priority 1994, dated 1999).

HELM strings list residues between dots; [ac] is acetyl, [am] amide, other brackets name non-standard units.

This data set in a line: general procedure: Boc solid-phase peptide synthesis; 4-methylbenzhydrylamine resin; DCC/HOBt.
Setting [1] is: whole synthesis, scale 0.5 mmol.

“PEPTIDE1{A.V.S.E.H.Q.L.L.H.D.K.G.K.S.I.Q.D.L.R.R.R.E.L.L.E.K.L.L.E.K.L.H.T.A.[am]}$$$$V2.0”: under setting [1], the crude mass came to 900 mgs, the “final purity (method not given)” value is more than 98% and the isolated mass is 130 mgs.

In the case of AVSEHQLLHDKGKSIQDLRRRELLEKLLEKLHTXZ-NH2, the “final purity (method not given)” value (late stage modification step) is more than 98%.
